The results in this text go back to the supplement of paper PMC10735217.

This experiment has as its system HEK293A TEAD-LUC reporter. Put plainly: TEAD-luciferase reporter activity (YAP activation), robust Z score vs plate; higher = stronger YAP/TEAD activation. The note with it: 24 h.

Molecules are shown by their SMILES. Structures can show the parent of a compound that is named as a salt. The list shows a part of the results. Repeats in this data set agree poorly, so a single value says little.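 The human kidney-derived cells carry a stably integrated construct of eight TEAD-binding elements driving luciferase, read by luminescence in a drug-repurposing library screen. A compound counts as a hit when its signal is more than five robust Z scores above the plate mean.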

With `O=C(O)c1ccccc1NCCc1ccccc1` [enfenamic acid], the TEAD-luciferase reporter activity runs as follows: (compound concentration: 200 nM) inactive: -0.807; (compound concentration: 2 uM) inactive: -0.653; (compound concentration: 10 uM) active: 5.95.

Take `O=C1c2ccccc2CN1C1CCN(CC2CCCCC2)CC1`: the TEAD-luciferase reporter activity is, setting by setting: (compound concentration: 200 nM) inactive: 1.29; (compound concentration: 10 uM) inactive: 2.45.

Take `O=C(C1CCCC1)N1CCC(C(=O)N2CCC(N3Cc4ccccc4C3=O)CC2)CC1`: the TEAD-luciferase reporter activity runs as follows: (compound concentration: 200 nM) inactive: 1.76; (compound concentration: 10 uM) inactive: -0.00762.

Turning to `CC(=O)NC[C@H]1CN(c2ccc(N3CCN(C(=O)COC(=O)CN(C)C)CC3)c(F)c2)C(=O)O1`, the TEAD-luciferase reporter activity is inactive: -0.608 (compound concentration: 200 nM), inactive: -0.0522 (compound concentration: 2 uM) and inactive: -0.233 (compound concentration: 10 uM).

On to `CCOC(=O)C1CCN(c2nc(N(C)S(=O)(=O)c3ccc4ccccc4c3)ccc2[N+](=O)[O-])CC1`, for which the TEAD-luciferase reporter activity (compound concentration: 200 nM) was inactive: -0.453, the TEAD-luciferase reporter activity (compound concentration: 2 uM) was inactive: 2.31 and the TEAD-luciferase reporter activity (compound concentration: 10 uM) is inactive: -0.307.

On to `CCCCNC(=O)C(N)CCC` (stereo not drawn), for which the TEAD-luciferase reporter activity reads like this: (compound concentration: 200 nM) inactive: 0.211; (compound concentration: 2 uM) inactive: 1.21; (compound concentration: 10 uM) inactive: 0.763.

As to `CC(=O)N1CCCC2(Cc3ccccc3CN2C(=O)c2ccccc2)C1` (stereo not drawn), the TEAD-luciferase reporter activity was inactive: -0.276 (compound concentration: 200 nM) and inactive: 2.24 (compound concentration: 10 uM).

Take `O=C(O)c1ccccc1S` [Thiosalicylic acid]: the TEAD-luciferase reporter activity was inactive: -0.931 (compound concentration: 200 nM), inactive: 0.262 (compound concentration: 2 uM) and inactive: 4.86 (compound concentration: 10 uM).

As for `O=c1[nH]c2ccccc2c(=O)n1CCCN1CCN(c2ccccc2)CC1` [Pelanserin hydrochloride], the TEAD-luciferase reporter activity reads like this: (compound concentration: 200 nM) inactive: -1.52; (compound concentration: 2 uM) inactive: -1.58; (compound concentration: 10 uM) inactive: -0.253.

For `CCN(CC)CCOC(=O)c1ccc(N)cc1`, the TEAD-luciferase reporter activity runs as follows: (compound concentration: 200 nM) inactive: 2.01; (compound concentration: 2 uM) inactive: -0.567; (compound concentration: 10 uM) inactive: -0.291.

As for `COC(=O)C1=C(C)NC(C)=C(C(=O)OCCCCNC[C@H](O)COc2ccccc2)C1c1cccc([N+](=O)[O-])c1` (stereo partly drawn), the TEAD-luciferase reporter activity is, setting by setting: (compound concentration: 200 nM) inactive: -0.575; (compound concentration: 2 uM) inactive: -2.12; (compound concentration: 10 uM) inactive: -0.898.

On to `C=CCc1ccccc1OCC(O)CNC(C)C` (stereo not drawn) [Alprenolol hydrochloride], for which the TEAD-luciferase reporter activity (compound concentration: 2 uM) is inactive: -0.23.

Consider `C=CCc1ccccc1OCC(O)CNC(C)C` (stereo not drawn) [Alprenolol HCl], for which the TEAD-luciferase reporter activity runs as follows: (compound concentration: 200 nM) inactive: 0.259; (compound concentration: 10 uM) inactive: -1.08.

With `[O-][n+]1cccc(C[C@@H](c2ccc(OC(F)F)c(OC3CC3)c2)c2cnc(C(O)(C(F)(F)F)C(F)(F)F)s2)c1`, the TEAD-luciferase reporter activity was inactive: 1.56 (compound concentration: 200 nM), inactive: -1.24 (compound concentration: 2 uM) and inactive: -1.57 (compound concentration: 10 uM).

With `O=C(C(=O)N1CCN(Cc2ccccc2)CC1)c1c[nH]c2ccccc12`, the TEAD-luciferase reporter activity was inactive: -1.42 (compound concentration: 200 nM), inactive: -0.631 (compound concentration: 2 uM) and inactive: 2.7 (compound concentration: 10 uM).

For the molecule `CCC[C@@H](NC(=O)N1C(=O)C(CC)(CC)[C@@H]1Oc1ccc(C(=O)N2CCN(C)CC2)cc1)c1ccc2c(c1)OCO2`, the TEAD-luciferase reporter activity reads like this: (compound concentration: 200 nM) inactive: -2.72; (compound concentration: 2 uM) inactive: -0.693; (compound concentration: 10 uM) inactive: 0.276.

As for `O=C(NC1CC1)c1cn(-c2cccc(-c3ccc([C@@H]4C[C@H]4C(=O)O)c(F)c3)c2)c2ncccc2c1=O`, the TEAD-luciferase reporter activity reads like this: (compound concentration: 200 nM) inactive: -0.26; (compound concentration: 2 uM) inactive: 0.539; (compound concentration: 10 uM) inactive: -0.424.

For `CNC(=N)NCCC[C@H](N)C(=O)O` [tilarginine acetate], the TEAD-luciferase reporter activity (compound concentration: 2 uM) was inactive: -1.51.

Consider `CNC(=N)NCCC[C@H](N)C(=O)O` [L-Ornithine, N5-[imino(methylamino)methyl]-], for which the TEAD-luciferase reporter activity runs as follows: (compound concentration: 200 nM) inactive: -0.458; (compound concentration: 10 uM) inactive: 0.612.

For `Nc1nc(N)c2c(n1)NCC(CO)N2` (stereo not drawn), the TEAD-luciferase reporter activity runs as follows: (compound concentration: 200 nM) inactive: -1.58; (compound concentration: 2 uM) inactive: -1.47; (compound concentration: 10 uM) inactive: -0.988.

Regarding `c1ccc2c(c1)CC[C@@H](CNCCCNC1=NCCCN1)O2`, the TEAD-luciferase reporter activity by setting is: (compound concentration: 200 nM) inactive: -0.31; (compound concentration: 2 uM) inactive: -1.12; (compound concentration: 10 uM) inactive: 0.433.

Consider `O=C1c2cccc3cc([N+](=O)[O-])cc(c23)C(=O)N1NCCO`, for which the TEAD-luciferase reporter activity by setting is: (compound concentration: 200 nM) inactive: -0.0338; (compound concentration: 2 uM) inactive: 0.73; (compound concentration: 10 uM) inactive: -2.04.

Turning to `NS(=O)(=O)c1cc(C(=O)O)c(NCc2ccco2)cc1Cl` [furosemide AcuForm], the TEAD-luciferase reporter activity (compound concentration: 2 uM) was inactive: 2.98.

For the molecule `NS(=O)(=O)c1cc(C(=O)O)c(NCc2ccco2)cc1Cl`, the TEAD-luciferase reporter activity (compound concentration: 200 nM) is inactive: 0.0703 and the TEAD-luciferase reporter activity (compound concentration: 10 uM) was inactive: 0.263.

For `CCCCC1=Cc2cc3c(cc2C1N1CCN(C)CC1)OCO3` (stereo not drawn), the TEAD-luciferase reporter activity runs as follows: (compound concentration: 200 nM) inactive: 0.308; (compound concentration: 2 uM) inactive: 1.07; (compound concentration: 10 uM) inactive: 1.21.

On to `CCNC(=O)Nc1ccc(-c2nc3c(c(N4CCOC[C@@H]4C)n2)CCN(C2COC2)C3)cc1`, for which the TEAD-luciferase reporter activity was inactive: -2.48 (compound concentration: 200 nM), inactive: -1.58 (compound concentration: 2 uM) and inactive: -0.44 (compound concentration: 10 uM).

As for `O=P(O)(O)COc1ccc(CCNC[C@H](O)COc2ccc(O)cc2)cc1`, the TEAD-luciferase reporter activity is, setting by setting: (compound concentration: 200 nM) inactive: -0.992; (compound concentration: 2 uM) inactive: -0.186; (compound concentration: 10 uM) inactive: 0.178.

Regarding `O=C(Nc1ccc(-c2ccnc(Nc3ccc(N4CCOCC4)cc3)n2)cc1)[C@@H]1CCCN1`, the TEAD-luciferase reporter activity by setting is: (compound concentration: 200 nM) inactive: 0.0511; (compound concentration: 2 uM) inactive: 0.396; (compound concentration: 10 uM) active: 6.38.

As for `Cc1[nH]c2ccccc2c1C[C@@H](NC(=O)[C@@H](Cc1c(C)[nH]c2ccccc12)NC(=O)C(C)(C)N)C(N)=O`, the TEAD-luciferase reporter activity reads like this: (compound concentration: 200 nM) inactive: -0.612; (compound concentration: 2 uM) inactive: -0.667; (compound concentration: 10 uM) inactive: -1.61.

As to `CCOC(=O)Nc1nc(N)c2c(n1)NCCC(c1ccccc1)=N2`, the TEAD-luciferase reporter activity reads like this: (compound concentration: 200 nM) inactive: -0.231; (compound concentration: 2 uM) inactive: -2.42; (compound concentration: 10 uM) inactive: -0.913.
